In PubChem BioAssay AID1508600 (Functional Genomics Laboratory (NCATS/FGL), 2020):
Out of some 53,000 sequences screened, about 3,700 (7%) were called active.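 How the source made its calls: active means gene knockdowns whose robust z-score for IL-1 alpha signal is at least 2 or at most -2, so actives lie on both sides; inactive means the rest.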 Some of the results follow.

Experiment: Components of the Cytosolic LPS Sensing Pathway: Gene Identification via Genome-wide siRNA Screen;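 further: robust z of the log signal after scaling to non-targeting control siRNA wells of the plate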
Settings: RAW264.7 macrophages, IL-1a HTRF, actives lie on both sides, screened at 100 nM (by protocol), cells primed 5 h with Pam3CSK4 first
Procedure, shortened: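 IL-1a HTRF of supernatants after 24 hour LipidA transfection of Pam3CSK4-primed (5 hours) RAW264.7 cells, 48h post-siRNA transfection (100 nM). Scores: percent of plate negative-control median, then log-based robust z-score.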

| Sequence | z-score |
| --- | --- |
| GGAUGAGGAAAACUUCCAGTT against Mup5 | active: 2.61 |
| GGUUUGGACACCUCUGUCATT against Adcy9 | inactive: -1.04 |
| GGGACACGUUUUCUGUGCATT against Lrrk1 | inactive: -1.77 |
| CGGUGAAAGACUUCAGUAUTT against Ppfibp1 | inactive: 0.578 |
| GCUCAGGAACAUUUGGACATT against Cyp2a5 | inactive: 0.655 |
| GGGCUUGAAAGCAUACAAATT against Bcat2 | inactive: 1.3 |
| GCUCCAAAUCAGUGUGCAATT against Gm4759 | inactive: 0.211 |
| CCAACAAUGCCGCCAUCAUTT against Gmfg | inactive: 0.108 |
| GGCUACGAUCCUACAGUGGTT against Rhebl1 | inactive: -0.283 |
| CCAAAUGUGCAGGUUGGAGTT against Exosc3 | inactive: -1.49 |
| GGGAAAAUCAAGACCAAUUTT against Rpp30 | inactive: 1.34 |
| GGUUACAGGAUGUUCUUAUTT against Fmo2 | inactive: -1.48 |
| UUCAUUCAUAUGGACAGUUTT against Psg19 | inactive: 1.73 |
| GGAAGGGUAAAUUUAGAAGTT against Arrdc3 | active: 2.83 |
| CCUGUGAACGCGACAUCAATT against Notch4 | inactive: 1.3 |
| GGAGAUCCAGUUUUUUAACTT against Ndst1 | inactive: 0.566 |
| GGCAGGUUCGAAGAUGUCUTT against Mknk2 | inactive: -0.67 |
| GGAAAAUAUUACUGAAGUGTT against Olfr1010 | inactive: 0.413 |
| GCCUGAUGACGGGAAAAUGTT against Glo1 | inactive: -0.911 |
| GCAGAAAAUAAAUCGAAGGTT against Sgo2a | inactive: 0.833 |
| GGCUUUGGAGGACUCAUUUTT against Uros | inactive: -1.02 |
| GGUCUUCUAAGAAAUUUUGTT against Fmnl2 | inactive: 0.407 |
| GGAGCUGAGCUCUCAGAAGTT against Eif3m | inactive: -0.667 |
| CCAGAAGUGGAUAAACUCUTT against Olfr122 | inactive: 1.11 |
| CCUUUUAACAGACAUGGUUTT against Tlr1 | inactive: -0.0397 |
| GCCUGACGGUUGUAAGAGUTT against Npc2 | inactive: 0.124 |
| GGUUGGCUUCCUGAAGAUCTT against 1700037H04Rik | inactive: -1.23 |
| GCUGUGAUCUCAGUAUUCATT against Strbp | inactive: 0.443 |
| GGGUGUUGAUGUCAUUGUGTT against Dbn1 | inactive: 1.51 |
| CCAAUGAAUACUUGUCAGCTT against Cpne2 | inactive: 0.168 |

In another format: entries from further up
Sequence	z-score
GGAAAAUAUUACUGAAGUGTT against Olfr1010	inactive: 0.413
GCCUGAUGACGGGAAAAUGTT against Glo1	inactive: -0.911
